Results are given in words; binding and its absence hold for the method and conditions named. Binding seen in cells or lysates may run through a third protein. Some results given as binding are weak or reduced against the parent protein; the word gives no strength.

Amino acid sequences for entries named in this document (tags omitted).
UniProt P99999: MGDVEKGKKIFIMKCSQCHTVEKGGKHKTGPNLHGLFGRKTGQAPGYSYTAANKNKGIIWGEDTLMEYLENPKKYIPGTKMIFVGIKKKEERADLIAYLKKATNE
UniProt P55211: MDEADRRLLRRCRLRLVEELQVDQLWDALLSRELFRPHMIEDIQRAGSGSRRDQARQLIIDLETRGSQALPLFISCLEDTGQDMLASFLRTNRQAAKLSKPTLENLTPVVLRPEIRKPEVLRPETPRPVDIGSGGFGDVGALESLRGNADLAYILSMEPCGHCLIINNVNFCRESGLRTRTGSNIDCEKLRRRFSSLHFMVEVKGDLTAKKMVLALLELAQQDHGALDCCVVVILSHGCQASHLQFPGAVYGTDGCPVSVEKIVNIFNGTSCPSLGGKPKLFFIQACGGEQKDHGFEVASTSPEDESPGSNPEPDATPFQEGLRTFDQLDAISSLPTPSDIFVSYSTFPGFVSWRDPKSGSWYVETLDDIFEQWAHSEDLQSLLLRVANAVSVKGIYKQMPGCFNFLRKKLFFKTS
UniProt P58801: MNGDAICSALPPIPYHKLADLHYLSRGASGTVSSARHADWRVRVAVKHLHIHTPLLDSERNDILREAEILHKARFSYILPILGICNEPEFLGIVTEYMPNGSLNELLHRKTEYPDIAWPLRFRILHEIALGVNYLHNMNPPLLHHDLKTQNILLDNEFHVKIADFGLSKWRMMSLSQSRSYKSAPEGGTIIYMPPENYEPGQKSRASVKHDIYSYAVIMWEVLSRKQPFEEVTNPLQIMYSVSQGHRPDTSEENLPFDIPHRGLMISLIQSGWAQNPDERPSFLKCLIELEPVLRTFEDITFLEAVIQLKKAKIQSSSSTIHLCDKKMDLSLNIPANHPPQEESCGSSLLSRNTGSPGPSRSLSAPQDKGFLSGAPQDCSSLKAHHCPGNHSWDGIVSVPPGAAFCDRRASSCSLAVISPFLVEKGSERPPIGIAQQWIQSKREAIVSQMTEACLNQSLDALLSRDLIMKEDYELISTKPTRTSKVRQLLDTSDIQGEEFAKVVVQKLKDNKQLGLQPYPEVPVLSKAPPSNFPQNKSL
UniProt O43353: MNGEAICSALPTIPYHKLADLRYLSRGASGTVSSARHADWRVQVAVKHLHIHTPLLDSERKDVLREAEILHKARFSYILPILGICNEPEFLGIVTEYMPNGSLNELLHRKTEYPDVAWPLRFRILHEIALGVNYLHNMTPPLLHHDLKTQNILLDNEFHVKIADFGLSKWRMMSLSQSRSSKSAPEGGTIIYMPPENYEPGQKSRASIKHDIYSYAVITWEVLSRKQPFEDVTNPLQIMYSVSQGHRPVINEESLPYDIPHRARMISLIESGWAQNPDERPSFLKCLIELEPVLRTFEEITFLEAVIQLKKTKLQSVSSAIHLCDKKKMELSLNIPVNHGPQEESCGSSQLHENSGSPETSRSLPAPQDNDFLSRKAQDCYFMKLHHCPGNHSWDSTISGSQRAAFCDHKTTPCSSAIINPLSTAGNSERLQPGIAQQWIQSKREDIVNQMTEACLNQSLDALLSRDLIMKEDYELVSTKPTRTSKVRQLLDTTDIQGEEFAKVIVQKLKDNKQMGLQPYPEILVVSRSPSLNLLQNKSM

One assay concerns the target Flag-tagged Cyt c (UniProt P99999). Put plainly: co-IP; HA-tagged full-length Apaf-1 WT, DM or CM co-expressed with Flag-tagged Cyt c in HEK293T for 24 h; anti-Flag beads; blotted with anti-Flag or anti-HA.
Assay [1] deals with cleaved caspase-9, endogenous in A549 cell-free extracts (human (endogenous in A549)) (UniProt P55211). The experiment in a line: co-sedimentation; A549 cell-free extract with 50 μg/mL Cyt c and 1 mM dATP, without DNA, 30 °C for 2 h; glycerol gradient ultracentrifugation (10%–45%); fractions immunoblotted for Apaf-1, RIP2, caspase-9. A general note: A western blot detects proteins with antibodies after separation by electrophoresis.

Assay [2] addresses RIP2, endogenous in primary mouse ear fibroblasts (mouse (endogenous in primary ear fibroblasts)) (UniProt P58801). The experiment in a line: cross-linking; chemical cross-linkers in lysates from primary mouse ear fibroblasts transfected with HT-DNA or ISD; immunoblot of endogenous RIP2.
For assay [3], the target named is T1, Apaf-1, endogenous in A549 cell-free extracts (human (endogenous in A549)), O14727.
T1 chain: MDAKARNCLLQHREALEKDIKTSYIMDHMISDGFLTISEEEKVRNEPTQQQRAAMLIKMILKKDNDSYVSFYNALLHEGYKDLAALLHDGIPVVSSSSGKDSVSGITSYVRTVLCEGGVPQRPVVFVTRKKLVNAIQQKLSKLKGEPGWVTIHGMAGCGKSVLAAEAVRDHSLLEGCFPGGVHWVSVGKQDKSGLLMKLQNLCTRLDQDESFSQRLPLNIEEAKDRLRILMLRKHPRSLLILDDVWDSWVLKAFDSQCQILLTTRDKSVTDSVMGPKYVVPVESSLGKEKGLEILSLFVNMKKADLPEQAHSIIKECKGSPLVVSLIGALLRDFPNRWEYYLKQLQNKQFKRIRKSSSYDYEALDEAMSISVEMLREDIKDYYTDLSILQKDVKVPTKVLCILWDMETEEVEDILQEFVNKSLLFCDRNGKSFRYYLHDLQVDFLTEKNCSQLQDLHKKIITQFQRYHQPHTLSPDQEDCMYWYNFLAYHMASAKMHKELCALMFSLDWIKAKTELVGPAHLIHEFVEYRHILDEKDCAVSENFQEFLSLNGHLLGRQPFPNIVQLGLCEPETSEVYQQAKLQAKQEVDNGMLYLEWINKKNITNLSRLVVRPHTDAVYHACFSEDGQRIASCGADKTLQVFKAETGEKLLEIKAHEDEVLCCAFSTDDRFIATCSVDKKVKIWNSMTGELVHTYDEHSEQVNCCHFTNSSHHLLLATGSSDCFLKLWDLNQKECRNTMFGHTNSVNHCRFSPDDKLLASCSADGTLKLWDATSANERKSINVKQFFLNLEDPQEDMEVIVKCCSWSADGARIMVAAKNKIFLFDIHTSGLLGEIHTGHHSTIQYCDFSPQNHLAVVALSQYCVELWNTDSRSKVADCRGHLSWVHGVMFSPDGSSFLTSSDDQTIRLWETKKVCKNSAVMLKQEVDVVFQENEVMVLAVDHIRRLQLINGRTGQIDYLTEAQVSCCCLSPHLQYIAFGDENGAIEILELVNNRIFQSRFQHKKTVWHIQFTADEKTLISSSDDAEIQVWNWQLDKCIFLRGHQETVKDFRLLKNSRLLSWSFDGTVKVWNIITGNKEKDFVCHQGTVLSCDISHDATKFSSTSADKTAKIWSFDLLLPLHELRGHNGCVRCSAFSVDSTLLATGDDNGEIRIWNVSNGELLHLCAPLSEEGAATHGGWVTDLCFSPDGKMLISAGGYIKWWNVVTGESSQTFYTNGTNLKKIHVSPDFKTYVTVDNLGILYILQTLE
The experiment in a line: co-sedimentation; A549 cell-free extract with 50 μg/mL Cyt c and 1 mM dATP, without DNA, 30 °C for 2 h; glycerol gradient ultracentrifugation (10%–45%); fractions immunoblotted for Apaf-1, RIP2, caspase-9. Conditions: remark: other sources report otherwise.

In the case of “HA-tagged full-length human Apaf-1 (apoptotic protease activating factor 1) (from UniProt O14727 1-1248)”, the binding entry in the assay with Flag-tagged Cyt c is recorded as “binds”. For the molecule “RIP2, endogenous in A549 cells (from UniProt O43353 1-540)”, the binding result in assay [1] was “no binding”.

In the case of “RIP2, endogenous in primary mouse ear fibroblasts (from UniProt P58801 1-539)”, the binding entry in assay [2] was “binds”.

B1: Apaf-1, endogenous in A549 cell-free extracts, O14727 1-1248 (protein)
chain: T1 chain
Turning to B1, the binding result in assay [3] was “binds”.

The record behind these values is article PMC11747288.
